Measured values published in patent US9155795B2 (Anchor Therapeutics, Inc., priority 2010, dated 2015).

Test: general procedure: Fmoc solid-phase peptide synthesis; Rink amide resin; HBTU/HOBt
Conditions: whole synthesis, scale 0.1 mmol

Row | Substance | isolated mass
1 | C28H45O2— MGYQKKLRSMTDKYRL-amide | 1.8 mg
2 | CH3(CH2)15SO2— GGYQKKLRSATDKYRL-amide | 2.9 mg
3 | CH3(CH2)15SO2— GGYQKKLRpHTDKYRL-amide | 3.5 mg
